Test results: publication PMC9775280

Experiments:
[1] = system: proplatelet basic protein (PPBP); assay: electrochemical aptasensor (DPV); details: 1 ng/mL, current below blank, attributed to physical adsorption; 5'-NH2; PBS as solvent, 100 uL sample; DPV -0.6 to 0 V, peak about -0.4 V; BSA-blocked electrode; salt and assay temperature not stated; commercial protein; single-stranded DNA
CA125 (CA125 standard) = CA125 (CA125 standard) (UniProt Q8WXI7); assay: electrochemical aptasensor (DPV); details: 1 ng/mL, current below blank, attributed to physical adsorption; 5'-NH2; PBS as solvent, 100 uL sample; DPV -0.6 to 0 V, peak about -0.4 V; BSA-blocked electrode; salt and assay temperature not stated; commercial protein; single-stranded DNA

Q: Which results are given for “GCCTGTAAGGTGGTCGGTGTGGCGAGTGTGTTAGGAGAGATTGC [CRP aptamer]”?
A: binding result [1]: no binding; binding result (CA125 (CA125 standard)): no binding

Construct, isoform or probe ends are uncertain for at least one entry. Negatives hold for the conditions tested.
